According to publication PMC2998423:
These are yes or no findings as the source states them, for the method shown. Binding seen in cells or lysates may run through a third protein. Some binding calls cover weakened binding; strength is not graded here.

Molecular target: T1, Human ABCG2 (human), Q9UNQ0
T1 chain: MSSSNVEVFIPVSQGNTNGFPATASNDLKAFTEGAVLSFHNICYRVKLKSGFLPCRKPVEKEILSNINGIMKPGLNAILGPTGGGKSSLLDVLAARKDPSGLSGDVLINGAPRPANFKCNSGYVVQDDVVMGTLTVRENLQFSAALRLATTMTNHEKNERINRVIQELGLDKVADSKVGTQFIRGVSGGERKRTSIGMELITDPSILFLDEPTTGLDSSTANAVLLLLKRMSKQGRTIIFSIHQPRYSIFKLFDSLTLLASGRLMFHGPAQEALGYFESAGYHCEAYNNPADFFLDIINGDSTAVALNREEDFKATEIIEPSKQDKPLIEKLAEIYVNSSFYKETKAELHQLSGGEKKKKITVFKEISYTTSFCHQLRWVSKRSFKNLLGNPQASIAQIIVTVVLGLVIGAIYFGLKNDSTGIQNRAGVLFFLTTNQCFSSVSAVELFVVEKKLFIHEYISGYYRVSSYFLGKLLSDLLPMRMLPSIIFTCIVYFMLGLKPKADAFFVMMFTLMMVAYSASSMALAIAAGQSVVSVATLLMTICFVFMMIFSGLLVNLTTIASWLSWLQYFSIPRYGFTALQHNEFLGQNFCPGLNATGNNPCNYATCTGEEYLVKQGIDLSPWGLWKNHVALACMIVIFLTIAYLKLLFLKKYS
Assay: co-IP; HEK293 cells co-transfected with Myc- and HA-tagged ABCG2; exposed to 3.3 µM PZ-34, PZ-38 or DMSO control for 6 hrs; lysates immunoprecipitated with anti-Myc or anti-HA monoclonal antibody, Western blot probed with anti-HA and anti-Myc
Conditions: remark: other sources report otherwise

B1: Human ABCG2, Q9UNQ0 1-655 (protein)
chain: T1 chain
  binding: binds
